This assay has as its system CD2F1 mice, L1210 leukemia ip, survival T/C. Put plainly: NCI In Vivo Anticancer Drug Screen. Data for tumor model L1210 Leukemia (intraperitoneal) in CD2F1 (CDF1) mice. Conditions: higher T/C = longer survival. On the procedure:
The antitumor activity of compounds was measured in mice bearing transplantable tumors. Survival or tumor size were measured and the results are expressed as the measurement made in the treated group (T) divided by the measurement made in the vehicle treated control group (C). The tumor model used in this assay is L1210 Leukemia (intraperitoneal) in CD2F1 (CDF1) mice

The mark [1] stands for this setting: T/C endpoint: mean survival time, dose: 100.0 mg/kg/injection, schedule: Q01DX009 (ip), vehicle: Klucel (hydroxypropylcellulose) (HPC).

The list is a part of this screen's results and no random one: it gathers some chemical classes. Not every dose and run of a compound is shown. T/C is the treated group as % of the vehicle group. Some entries give survivors of the animals treated and no T/C: the source files T/C as zero there, which appears to mark a toxic dose or a test without result, not a measured value. Some survivor counts are full or nearly so, which does not show that the dose was tolerated: the source hardly ever lists a survival T/C far under the control, and the zero likely stands for such cases as well. Survivors were counted at the toxicity check, usually on the fifth day, unless a day is given; later deaths do not show. Schedules are NCI's codes, read here as Q, the interval in days (D) or hours (H), X, the number of doses. Some entries hold several experiments; their values stand side by side, smallest first. For survival time, the PubChem record calls one and a half times the control and up active, and a quarter to a half above the control has no call in these data; cut-offs in other NCI protocols can differ. Some T/C values carry the count of animals alive at the toxicity check (mostly the fifth day); where neither a count nor a note follows, no animal had died by that day. Marks such as (2×) count equal records among those shown. Some entries show no survivor count and are marked so; the dose need not have been tolerated.

Regarding `ClCCN(CCCl)c1ccccc1`, the T/C is, setting by setting: (T/C endpoint: mean survival time, dose: 1.56 mg/kg/injection, schedule: Q01DX009 (ip), vehicle: Klucel (hydroxypropylcellulose) (HPC)) 101 % of control; (T/C endpoint: mean survival time, dose: 3.12 mg/kg/injection, schedule: Q01DX009 (ip), vehicle: Klucel (hydroxypropylcellulose) (HPC), evaluated on day 30) 102, 108 (2×), 111 % of control [5 of 6 alive]; (T/C endpoint: mean survival time, dose: 3.12 mg/kg/injection, schedule: Q01DX009 (ip), vehicle: Klucel (hydroxypropylcellulose) (HPC), evaluation day not shown) 102 % of control [survivor count not shown] (2×); (T/C endpoint: mean survival time, dose: 3.13 mg/kg/injection, schedule: Q01DX009 (ip), vehicle: Klucel (hydroxypropylcellulose) (HPC)) 108 % of control [survivor count not shown]; (T/C endpoint: mean survival time, dose: 6.0 mg/kg/injection, schedule: Q01DX009 (ip), vehicle: saline with Tween-80) 106 % of control [survivor count not shown]; (T/C endpoint: mean survival time, dose: 6.25 mg/kg/injection, schedule: Q01DX009 (ip), vehicle: Klucel (hydroxypropylcellulose) (HPC), evaluated on day 30) 100, 104, 114, 118 % of control. Besides, the T/C was 103 [survivor count not shown], 106 [survivor count not shown], 107 % of control [survivor count not shown] (T/C endpoint: mean survival time, dose: 6.25 mg/kg/injection, schedule: Q01DX009 (ip), vehicle: Klucel (hydroxypropylcellulose) (HPC), evaluation day not shown); 106 % of control [survivor count not shown] (T/C endpoint: mean survival time, dose: 12.0 mg/kg/injection, schedule: Q01DX009 (ip), vehicle: saline with Tween-80); 111, 117, 118, 119 % of control (T/C endpoint: mean survival time, dose: 12.5 mg/kg/injection, schedule: Q01DX009 (ip), vehicle: Klucel (hydroxypropylcellulose) (HPC), evaluated on day 30); 103 [survivor count not shown] and 110 % of control [survivor count not shown] (2×) (T/C endpoint: mean survival time, dose: 12.5 mg/kg/injection, schedule: Q01DX009 (ip), vehicle: Klucel (hydroxypropylcellulose) (HPC), evaluation day not shown); 128 % of control [survivor count not shown] (T/C endpoint: mean survival time, dose: 24.0 mg/kg/injection, schedule: Q01DX009 (ip), vehicle: saline with Tween-80); 112, 113, 117, 140 % of control (T/C endpoint: mean survival time, dose: 25.0 mg/kg/injection, schedule: Q01DX009 (ip), vehicle: Klucel (hydroxypropylcellulose) (HPC), evaluated on day 30). Besides, the T/C runs as follows: (T/C endpoint: mean survival time, dose: 25.0 mg/kg/injection, schedule: Q01DX009 (ip), vehicle: Klucel (hydroxypropylcellulose) (HPC), evaluation day not shown) 111 [survivor count not shown], 114 [survivor count not shown], 128 % of control [survivor count not shown]; (T/C endpoint: mean survival time, dose: 48.0 mg/kg/injection, schedule: Q01DX009 (ip), vehicle: saline with Tween-80) 110 % of control [survivor count not shown]; (T/C endpoint: mean survival time, dose: 50.0 mg/kg/injection, schedule: Q01DX009 (ip), vehicle: Klucel (hydroxypropylcellulose) (HPC), evaluated on day 30) 90 (2×) and 113 % of control; (T/C endpoint: mean survival time, dose: 50.0 mg/kg/injection, schedule: Q01DX009 (ip), vehicle: Klucel (hydroxypropylcellulose) (HPC), evaluation day not shown) 101 [survivor count not shown] and 116 % of control [survivor count not shown]; under setting [1], 160 % of control. In addition, the survivor count runs as follows: (T/C endpoint: mean survival time, dose: 50.0 mg/kg/injection, schedule: Q01DX009 (ip), vehicle: Klucel (hydroxypropylcellulose) (HPC)) 5 of 6; under setting [1], 0 of 6 and 3 of 6.
In the case of `CC(C)(C)[Si](C)(C)OP(N)(=O)N(CCCl)CCCl` (stereo not given), the T/C reads like this: (T/C endpoint: mean survival time, dose: 15.6 mg/kg/injection, schedule: Q01DX001 (ip), vehicle: distilled water + Tween-80) 100 % of control; (T/C endpoint: mean survival time, dose: 31.3 mg/kg/injection, schedule: Q01DX001 (ip), vehicle: distilled water + Tween-80) 110 % of control; (T/C endpoint: mean survival time, dose: 62.5 mg/kg/injection, schedule: Q01DX001 (ip), vehicle: distilled water + Tween-80) 98, 107, 117 % of control; (T/C endpoint: mean survival time, dose: 125.0 mg/kg/injection, schedule: Q01DX001 (ip), vehicle: distilled water + Tween-80) 98, 110, 132 % of control; (T/C endpoint: mean survival time, dose: 250.0 mg/kg/injection, schedule: Q01DX001 (ip), vehicle: distilled water + Tween-80) 103, 111, 138 % of control; (T/C endpoint: mean survival time, dose: 500.0 mg/kg/injection, schedule: Q01DX001 (ip), vehicle: distilled water + Tween-80) 88 [5 of 6 alive], 103, 117 % of control.
For `Nc1cc(N)cc(N(CCCl)CCCl)c1`, the T/C runs as follows: (T/C endpoint: mean survival time, dose: 2.5 mg/kg/injection, schedule: Q01DX009 (ip), vehicle: Klucel (hydroxypropylcellulose) (HPC)) 103 % of control [survivor count not shown]; (T/C endpoint: mean survival time, dose: 5.0 mg/kg/injection, schedule: Q01DX009 (ip), vehicle: Klucel (hydroxypropylcellulose) (HPC)) 105 % of control [survivor count not shown]; (T/C endpoint: mean survival time, dose: 10.0 mg/kg/injection, schedule: Q01DX009 (ip), vehicle: Klucel (hydroxypropylcellulose) (HPC)) 90 % of control [survivor count not shown].
With `CC(C)=NOP(N)(=O)N(CCCl)CCCl` (stereo not given), the T/C was 107 % of control (T/C endpoint: mean survival time, dose: 7.75 mg/kg/injection, schedule: Q01DX001 (ip), vehicle: water); 115 % of control (T/C endpoint: mean survival time, dose: 15.5 mg/kg/injection, schedule: Q01DX001 (ip), vehicle: water); 128 % of control (T/C endpoint: mean survival time, dose: 31.0 mg/kg/injection, schedule: Q01DX001 (ip), vehicle: water); 129 % of control (T/C endpoint: mean survival time, dose: 31.25 mg/kg/injection, schedule: Q01DX001 (ip), vehicle: water); 139 % of control (T/C endpoint: mean survival time, dose: 62.0 mg/kg/injection, schedule: Q01DX001 (ip), vehicle: water); 127 % of control (T/C endpoint: mean survival time, dose: 62.5 mg/kg/injection, schedule: Q01DX001 (ip), vehicle: water). Moreover, the survivor count (T/C endpoint: mean survival time, dose: 125.0 mg/kg/injection, schedule: Q01DX001 (ip), vehicle: water) is 5 of 6; the survivor count (T/C endpoint: mean survival time, dose: 250.0 mg/kg/injection, schedule: Q01DX001 (ip), vehicle: water) is 5 of 6; the survivor count (T/C endpoint: mean survival time, dose: 500.0 mg/kg/injection, schedule: Q01DX001 (ip), vehicle: water) is given as 0 of 6.
As for `O=P1(N(CCCl)CCCl)NCc2ccccc2N1` (stereo not given), the T/C reads like this: (T/C endpoint: mean survival time, dose: 31.8 mg/kg/injection, schedule: Q01DX001 (ip), vehicle: other) 102 % of control [survivor count not shown]; (T/C endpoint: mean survival time, dose: 62.5 mg/kg/injection, schedule: Q01DX001 (ip), vehicle: other) 100 % of control [survivor count not shown]; (T/C endpoint: mean survival time, dose: 125.0 mg/kg/injection, schedule: Q01DX001 (ip), vehicle: other) 92 % of control [survivor count not shown]; (T/C endpoint: mean survival time, dose: 250.0 mg/kg/injection, schedule: Q01DX001 (ip), vehicle: other) 93 % of control [survivor count not shown]; (T/C endpoint: mean survival time, dose: 500.0 mg/kg/injection, schedule: Q01DX001 (ip), vehicle: other) 96 % of control [survivor count not shown].
Regarding `O=NN(CCSCCCl)C(=O)NC1CCCCC1`, the T/C is 107 % of control [survivor count not shown] (T/C endpoint: mean survival time, dose: 4.0 mg/kg/injection, schedule: Q01DX001 (ip), vehicle: other); 113 % of control [survivor count not shown] (T/C endpoint: mean survival time, dose: 8.0 mg/kg/injection, schedule: Q01DX001 (ip), vehicle: other); 128 % of control [survivor count not shown] (T/C endpoint: mean survival time, dose: 16.0 mg/kg/injection, schedule: Q01DX001 (ip), vehicle: other); 142 % of control [survivor count not shown] (T/C endpoint: mean survival time, dose: 32.0 mg/kg/injection, schedule: Q01DX001 (ip), vehicle: other); 113 % of control (T/C endpoint: median survival time, dose: 3.12 mg/kg/injection, schedule: Q01DX009 (ip), vehicle: saline with Tween-80); 118 % of control (T/C endpoint: median survival time, dose: 6.25 mg/kg/injection, schedule: Q01DX009 (ip), vehicle: saline with Tween-80). For the same molecule, the T/C (T/C endpoint: median survival time, dose: 12.5 mg/kg/injection, schedule: Q01DX009 (ip), vehicle: saline with Tween-80) was 121 % of control and the T/C (T/C endpoint: median survival time, dose: 25.0 mg/kg/injection, schedule: Q01DX009 (ip), vehicle: saline with Tween-80) was 166 % of control.

The record behind these values is PubChem BioAssay AID256 (DTP/NCI, 2004).
